Measurements: the supplement of paper PMC10849652
The list shows a part of the results.

By UniProt entry, the sequences of proteins in these tests, tags left out. Where a name states a change or a piece, a line headed by the entry shows the natural chain unless it says otherwise.
UniProt Q13467, whole entry, looked up: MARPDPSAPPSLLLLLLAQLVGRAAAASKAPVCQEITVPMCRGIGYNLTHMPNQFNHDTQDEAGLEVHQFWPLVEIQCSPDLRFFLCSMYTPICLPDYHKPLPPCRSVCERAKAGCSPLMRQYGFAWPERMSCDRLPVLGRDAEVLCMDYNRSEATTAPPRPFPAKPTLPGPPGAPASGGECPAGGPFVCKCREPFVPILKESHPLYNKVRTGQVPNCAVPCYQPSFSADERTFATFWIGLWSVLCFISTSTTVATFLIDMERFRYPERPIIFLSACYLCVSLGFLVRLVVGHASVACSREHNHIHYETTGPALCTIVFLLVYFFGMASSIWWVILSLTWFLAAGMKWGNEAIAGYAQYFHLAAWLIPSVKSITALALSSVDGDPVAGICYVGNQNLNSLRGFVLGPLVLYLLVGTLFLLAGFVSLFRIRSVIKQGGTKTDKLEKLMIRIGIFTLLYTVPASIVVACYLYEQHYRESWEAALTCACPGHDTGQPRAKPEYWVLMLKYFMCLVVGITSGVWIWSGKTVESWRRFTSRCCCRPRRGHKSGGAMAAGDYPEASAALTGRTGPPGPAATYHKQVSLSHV
UniProt Q10472: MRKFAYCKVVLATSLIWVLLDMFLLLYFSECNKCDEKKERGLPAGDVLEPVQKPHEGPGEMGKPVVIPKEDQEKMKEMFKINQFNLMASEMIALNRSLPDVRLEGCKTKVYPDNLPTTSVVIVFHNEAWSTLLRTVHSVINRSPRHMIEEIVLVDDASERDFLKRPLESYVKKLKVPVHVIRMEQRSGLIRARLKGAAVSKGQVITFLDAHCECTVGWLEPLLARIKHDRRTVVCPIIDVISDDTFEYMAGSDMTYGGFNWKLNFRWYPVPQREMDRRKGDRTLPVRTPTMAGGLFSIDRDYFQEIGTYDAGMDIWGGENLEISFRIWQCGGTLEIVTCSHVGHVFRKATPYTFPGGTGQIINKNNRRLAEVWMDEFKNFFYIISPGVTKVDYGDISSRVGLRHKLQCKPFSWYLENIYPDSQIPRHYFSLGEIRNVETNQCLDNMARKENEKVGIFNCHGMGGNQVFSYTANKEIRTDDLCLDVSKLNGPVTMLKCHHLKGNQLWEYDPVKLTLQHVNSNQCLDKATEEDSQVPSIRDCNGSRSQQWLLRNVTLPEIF
UniProt Q9NZC3: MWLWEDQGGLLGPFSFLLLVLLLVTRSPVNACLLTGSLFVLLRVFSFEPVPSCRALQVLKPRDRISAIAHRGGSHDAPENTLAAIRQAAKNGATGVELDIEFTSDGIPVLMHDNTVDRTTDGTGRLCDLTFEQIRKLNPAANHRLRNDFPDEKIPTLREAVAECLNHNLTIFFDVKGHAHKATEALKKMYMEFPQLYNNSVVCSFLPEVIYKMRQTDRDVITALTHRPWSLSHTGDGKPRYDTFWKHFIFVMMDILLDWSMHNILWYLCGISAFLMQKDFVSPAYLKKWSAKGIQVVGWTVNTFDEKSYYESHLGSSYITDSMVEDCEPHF
UniProt Q8NB37: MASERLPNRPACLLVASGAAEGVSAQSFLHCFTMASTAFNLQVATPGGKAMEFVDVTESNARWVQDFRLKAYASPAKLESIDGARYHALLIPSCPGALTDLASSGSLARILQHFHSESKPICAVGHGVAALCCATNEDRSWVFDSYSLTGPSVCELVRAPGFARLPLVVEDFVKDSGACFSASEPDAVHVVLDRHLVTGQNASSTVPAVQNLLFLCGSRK
UniProt Q6ZNA5: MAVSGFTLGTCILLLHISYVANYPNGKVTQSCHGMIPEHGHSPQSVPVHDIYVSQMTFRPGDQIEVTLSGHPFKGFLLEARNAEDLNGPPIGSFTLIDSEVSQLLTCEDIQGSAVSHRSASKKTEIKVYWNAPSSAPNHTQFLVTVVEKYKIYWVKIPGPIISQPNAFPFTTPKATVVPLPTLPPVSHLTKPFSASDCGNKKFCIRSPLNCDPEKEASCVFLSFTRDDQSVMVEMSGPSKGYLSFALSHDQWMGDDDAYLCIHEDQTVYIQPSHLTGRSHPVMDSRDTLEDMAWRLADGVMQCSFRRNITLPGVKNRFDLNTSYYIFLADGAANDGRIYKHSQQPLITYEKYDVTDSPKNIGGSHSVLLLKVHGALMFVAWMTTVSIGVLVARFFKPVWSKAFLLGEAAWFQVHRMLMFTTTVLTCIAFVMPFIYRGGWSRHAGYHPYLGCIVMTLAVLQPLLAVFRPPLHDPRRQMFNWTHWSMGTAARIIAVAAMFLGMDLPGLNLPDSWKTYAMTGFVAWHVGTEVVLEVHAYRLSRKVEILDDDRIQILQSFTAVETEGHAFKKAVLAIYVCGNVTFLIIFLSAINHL
UniProt Q96CN9: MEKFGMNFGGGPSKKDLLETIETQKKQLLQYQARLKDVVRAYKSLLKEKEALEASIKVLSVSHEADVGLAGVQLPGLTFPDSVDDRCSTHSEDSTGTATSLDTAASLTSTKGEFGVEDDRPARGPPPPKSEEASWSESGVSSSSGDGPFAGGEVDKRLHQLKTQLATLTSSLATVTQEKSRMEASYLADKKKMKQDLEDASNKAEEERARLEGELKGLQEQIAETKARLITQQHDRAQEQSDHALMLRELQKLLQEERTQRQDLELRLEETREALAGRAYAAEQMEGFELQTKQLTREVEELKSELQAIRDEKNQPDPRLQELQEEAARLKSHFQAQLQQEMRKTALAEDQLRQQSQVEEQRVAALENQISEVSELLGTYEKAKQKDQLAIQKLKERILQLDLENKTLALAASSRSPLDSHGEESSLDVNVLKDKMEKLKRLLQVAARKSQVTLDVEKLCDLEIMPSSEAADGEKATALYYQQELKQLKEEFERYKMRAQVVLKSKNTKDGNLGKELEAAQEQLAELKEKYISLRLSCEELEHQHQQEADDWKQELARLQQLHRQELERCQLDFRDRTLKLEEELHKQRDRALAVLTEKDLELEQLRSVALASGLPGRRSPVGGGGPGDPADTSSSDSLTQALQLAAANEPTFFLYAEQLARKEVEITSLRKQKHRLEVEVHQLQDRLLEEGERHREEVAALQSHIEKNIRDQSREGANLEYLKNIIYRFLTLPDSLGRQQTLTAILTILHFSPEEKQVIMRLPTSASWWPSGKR
UniProt Q92947: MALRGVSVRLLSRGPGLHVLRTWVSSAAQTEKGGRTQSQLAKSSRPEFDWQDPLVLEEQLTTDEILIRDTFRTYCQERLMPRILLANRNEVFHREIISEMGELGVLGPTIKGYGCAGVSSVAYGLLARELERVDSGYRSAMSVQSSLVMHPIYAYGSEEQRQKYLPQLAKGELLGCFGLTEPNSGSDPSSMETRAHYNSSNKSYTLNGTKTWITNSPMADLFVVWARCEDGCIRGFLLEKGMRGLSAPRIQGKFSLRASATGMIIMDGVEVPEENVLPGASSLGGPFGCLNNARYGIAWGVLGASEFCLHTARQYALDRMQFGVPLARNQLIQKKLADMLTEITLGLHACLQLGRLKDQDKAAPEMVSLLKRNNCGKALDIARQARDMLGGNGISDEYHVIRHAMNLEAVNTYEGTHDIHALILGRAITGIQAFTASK
UniProt P51114, whole entry, looked up: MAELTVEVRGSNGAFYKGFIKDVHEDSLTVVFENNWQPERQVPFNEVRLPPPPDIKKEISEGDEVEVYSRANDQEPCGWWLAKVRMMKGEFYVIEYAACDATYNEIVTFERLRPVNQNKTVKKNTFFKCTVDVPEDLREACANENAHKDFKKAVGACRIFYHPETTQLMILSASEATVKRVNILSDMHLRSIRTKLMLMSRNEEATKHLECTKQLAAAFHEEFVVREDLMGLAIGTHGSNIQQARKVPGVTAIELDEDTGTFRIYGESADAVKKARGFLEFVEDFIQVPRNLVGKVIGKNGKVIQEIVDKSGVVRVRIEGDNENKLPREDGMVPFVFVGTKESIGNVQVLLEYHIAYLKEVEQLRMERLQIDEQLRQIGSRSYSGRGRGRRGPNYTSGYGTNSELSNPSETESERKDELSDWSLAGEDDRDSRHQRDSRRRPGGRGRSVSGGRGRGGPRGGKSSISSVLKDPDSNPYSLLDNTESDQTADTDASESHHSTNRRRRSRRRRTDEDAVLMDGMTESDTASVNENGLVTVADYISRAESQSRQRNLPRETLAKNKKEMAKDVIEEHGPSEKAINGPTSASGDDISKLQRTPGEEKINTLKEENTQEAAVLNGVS
UniProt Q10471: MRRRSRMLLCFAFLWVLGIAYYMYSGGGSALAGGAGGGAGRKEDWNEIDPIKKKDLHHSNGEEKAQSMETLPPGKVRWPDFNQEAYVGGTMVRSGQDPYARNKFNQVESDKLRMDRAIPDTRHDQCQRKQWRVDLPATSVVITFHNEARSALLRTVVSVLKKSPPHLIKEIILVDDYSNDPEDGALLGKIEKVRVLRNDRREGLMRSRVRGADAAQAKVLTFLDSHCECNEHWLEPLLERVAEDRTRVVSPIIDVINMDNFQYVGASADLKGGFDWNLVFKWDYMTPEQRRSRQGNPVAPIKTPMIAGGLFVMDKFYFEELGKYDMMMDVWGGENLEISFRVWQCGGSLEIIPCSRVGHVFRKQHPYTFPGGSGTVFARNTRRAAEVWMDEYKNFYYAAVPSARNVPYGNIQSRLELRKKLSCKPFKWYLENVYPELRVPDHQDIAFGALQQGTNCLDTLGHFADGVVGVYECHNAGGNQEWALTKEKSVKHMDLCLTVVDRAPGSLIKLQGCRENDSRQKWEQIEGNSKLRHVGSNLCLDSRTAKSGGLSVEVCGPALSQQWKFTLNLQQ
UniProt P07902: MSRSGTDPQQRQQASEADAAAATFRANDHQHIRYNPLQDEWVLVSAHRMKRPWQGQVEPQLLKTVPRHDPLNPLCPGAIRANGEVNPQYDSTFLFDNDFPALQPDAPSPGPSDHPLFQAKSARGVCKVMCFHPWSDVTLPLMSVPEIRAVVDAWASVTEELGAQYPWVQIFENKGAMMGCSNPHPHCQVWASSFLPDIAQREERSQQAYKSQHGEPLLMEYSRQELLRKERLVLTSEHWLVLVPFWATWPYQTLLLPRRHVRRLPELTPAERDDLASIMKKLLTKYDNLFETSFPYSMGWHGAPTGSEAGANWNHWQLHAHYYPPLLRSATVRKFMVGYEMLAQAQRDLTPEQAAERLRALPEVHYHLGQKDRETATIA
UniProt P06241, whole entry, looked up: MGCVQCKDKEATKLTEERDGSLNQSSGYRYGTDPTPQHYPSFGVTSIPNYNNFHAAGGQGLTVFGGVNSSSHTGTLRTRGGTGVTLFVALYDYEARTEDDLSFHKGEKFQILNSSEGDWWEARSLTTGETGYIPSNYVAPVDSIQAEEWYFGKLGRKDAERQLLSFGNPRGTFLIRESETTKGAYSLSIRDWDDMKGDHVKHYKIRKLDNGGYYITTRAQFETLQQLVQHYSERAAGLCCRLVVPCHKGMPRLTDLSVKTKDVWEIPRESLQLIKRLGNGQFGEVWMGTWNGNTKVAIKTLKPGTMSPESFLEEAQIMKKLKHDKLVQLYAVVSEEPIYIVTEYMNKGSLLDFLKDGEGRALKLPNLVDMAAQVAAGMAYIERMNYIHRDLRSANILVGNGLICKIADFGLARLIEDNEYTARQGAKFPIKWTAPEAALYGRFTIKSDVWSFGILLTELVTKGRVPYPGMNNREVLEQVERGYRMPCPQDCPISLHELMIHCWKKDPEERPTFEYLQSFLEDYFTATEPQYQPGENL
UniProt P0CL80: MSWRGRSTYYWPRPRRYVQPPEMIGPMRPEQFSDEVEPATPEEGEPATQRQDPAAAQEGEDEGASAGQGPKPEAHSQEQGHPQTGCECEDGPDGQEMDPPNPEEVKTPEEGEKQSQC
UniProt Q01415: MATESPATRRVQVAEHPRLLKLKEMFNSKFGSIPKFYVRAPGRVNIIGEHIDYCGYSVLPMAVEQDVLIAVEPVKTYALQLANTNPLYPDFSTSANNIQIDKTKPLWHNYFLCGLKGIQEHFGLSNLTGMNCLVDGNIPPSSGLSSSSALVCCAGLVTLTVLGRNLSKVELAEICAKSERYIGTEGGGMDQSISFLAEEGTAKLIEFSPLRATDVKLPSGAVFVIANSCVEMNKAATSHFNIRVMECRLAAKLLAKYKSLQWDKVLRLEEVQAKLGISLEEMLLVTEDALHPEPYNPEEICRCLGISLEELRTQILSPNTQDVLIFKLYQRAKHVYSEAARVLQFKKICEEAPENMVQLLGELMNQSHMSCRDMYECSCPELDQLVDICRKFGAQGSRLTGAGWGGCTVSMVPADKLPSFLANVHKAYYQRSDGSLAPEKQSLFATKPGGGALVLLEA

Columns and labels:
Experiment in all cases: log2 fold change, soluble protein after heating vs DMSO (PISA); higher = thermal stabilisation; K562 lysate, 10 uM; active = over 0.2 and 3.5 SD of the protein, either way, in both replicates (recomputed)
[1] = compound: C1=CC=C(C=C1)[C@H](COC2=CC3=C(C=C2)NC(=O)N3)NC(=O)C4=CC=CN(C4=O)CC5=CC(=C(C=C5)F)F
Outline: (§1)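 Log-two fold change in thermal stability relative to solvent controls is reported from duplicates. For each sample, crude K562 extract from dounce-homogenised pellets in PBS pH 7.4 with 1 mM MgCl2, at 1 mg/mL protein, was treated with 10 μM compound for 30 min. Aliquots heated for 3 min across 48°C-58°C were pooled, brought to 0.5% NP-40 at 4°C and cleared at 21,000xg for 90 min. The supernatant was quantified by TMTpro 16plex LC-MS/MS with channel sums equalised.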

[2] = compound: CC1=C(SC2=C1C(=N[C@H](C3=NN=C(N32)C)CC(=O)N)C4=CC=C(C=C4)Cl)C
Outline: as §1

[3] = compound: Cc1sc2c(c1C)C(c1ccc(Cl)cc1)=N[C@@H](CC(=O)OC(C)(C)C)c1nnc(C)n1-2
Outline: as §1

[4] = compound: c1ccc([C@@H]2C[C@H]2NC2CCNCC2)cc1
Outline: as §1

[5] = compound: CC1=C2C(=CC=C1)N=C(N(C2=O)C3=CC=CC=C3C)CN4C=NC5=C(N=CN=C54)N
Outline: as §1

Measured: log2 fold change

FZD5 (UniProt Q13467)
inactive: [1] 0.001 | [2] -0.119 | [3] 0.048 | [4] 0.442

GALNT1 (UniProt Q10472)
inactive: [1] -0.032 | [2] -0.003 | [5] 0.007 | [3] -0.05 | [4] -0.036

GDE1 (UniProt Q9NZC3)
inactive: [1] -0.085 | [2] -0.076 | [3] -0.067 | [4] 0.394

GATD1 (UniProt Q8NB37)
inactive: [1] -0.04 | [2] -0.008 | [5] 0.06 | [3] 0.032 | [4] -0.023

FRRS1 (UniProt Q6ZNA5)
inactive: [1] 0.063 | [2] -0.075 | [5] -0.059 | [3] -0.066 | [4] -0.2

GCC1 (UniProt Q96CN9)
inactive: [1] -0.047 | [2] -0.011 | [5] 0.093 | [3] -0.046 | [4] 0.021

GCDH (UniProt Q92947)
inactive: [1] 0.034 | [2] -0.032 | [5] -0.022 | [3] -0.008 | [4] -0.004

GDI2 (UniProt Q5SX86)
inactive: [1] 0.117 | [2] -0.008 | [5] -0.199 | [3] -0.012 | [4] 0.254

FXR1 (UniProt P51114)
inactive: [1] -0.028 | [2] -0.016 | [5] -0.009 | [3] 0.04 | [4] 0.027

GALNT2 (UniProt Q10471)
inactive: [1] 0.018 | [2] -0.009 | [5] 0.021 | [3] 0.004 | [4] -0.021

GALT (UniProt P07902)
inactive: [1] 0.052 | [2] -0.104 | [5] 0.007 | [3] 0.039 | [4] -0.059

FYN (UniProt P06241)
inactive: [1] -0.323 | [2] -0.231 | [5] -0.052 | [3] 0.019 | [4] -0.112

GAGE12F (UniProt P0CL80)
inactive: [1] -0.083 | [2] -0.027 | [5] -0.021 | [3] -0.048 | [4] 0.116

GALK2 (UniProt Q01415)
inactive: [1] 0.012 | [2] -0.005 | [5] 0.026 | [3] 0.003 | [4] -0.046

FRMPD3 (UniProt Q5JV73)
inactive: [1] 0.004 | [2] 0.008 | [5] -0.029 | [4] -0.172

2 records picked at random from the list so far, as already listed:
FYN (UniProt P06241)
inactive: [1] -0.323 | [2] -0.231 | [5] -0.052 | [3] 0.019 | [4] -0.112

GALK2 (UniProt Q01415)
inactive: [1] 0.012 | [2] -0.005 | [5] 0.026 | [3] 0.003 | [4] -0.046
